Results are given in words; binding and its absence hold for the method and conditions named. A result given as binding can be weak or reduced; the word gives no strength.
Target: HSP70 (Solyc01g060400.1.1) (tomato (Solanum lycopersicum)) (UniProt K4AWE3)
Experiment: two-hybrid; Matchmaker two-hybrid system (Clontech), S. cerevisiae strain Y-187; prey in pGADT7 (activation domain), bait in pGBKT7 (GAL4 DNA binding domain); growth on triple dropout plates (-Leu -Trp -His) with 5 mM 3AT

| binding | Substance |
| --- | --- |
| binds | SlBAG1 (from UniProt A0A3Q7FF21) |
| binds | SlBAG2 (from UniProt A0A3Q7GTX5) |

Reference: paper PMC8571320
